Library screen at single concentrations

From ChEMBL document CHEMBL3988442, “University of Dundee, Small-Polar-MMV Screening Library” (2021).

Values are the deposited “Percent Effect”, in %. The record does not define 0% and 100%; most values in the screen are far below 50% and negative numbers occur (in some assays of this library far below -100). Compounds were drawn at random from those tested, without regard to their results.

Mtb glucose medium: 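Whole-cell growth test on Mycobacterium tuberculosis, read after 3 days in glucose-containing 7H9 medium; the read-out is not stated. Compounds at 500 µM. The record gives no direction; compounds that gave an IC50 in retests scored well above the rest, so higher reads as more growth inhibition. About 18,000 compounds were tested under these conditions; 7.9% (about 1,400) showed 50% or more at least once.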
Mtb cholesterol medium: 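Whole-cell growth test on Mycobacterium tuberculosis, read after 4 days in a medium based on cholesterol and the lipid DPPC; the read-out is not stated. Compounds at 500 µM. Higher reads as more growth inhibition (inferred: compounds with an IC50 in retests scored well above the rest). Of about 18,000 compounds tested this way, about 900 (5%) reached 50% or more in at least one test.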

For CN1CCCN(C(=O)c2cc(C3CC3)on2)CC1 the result was Mtb glucose medium: 16.93%; Mtb cholesterol medium: 12.9%.
For O=C1CCC(C(=O)Nc2ccc(F)c(Br)c2)N1 (centres undefined) the result was Mtb glucose medium: 48.1%; Mtb cholesterol medium: 30.66%.
For NCCNS(=O)(=O)c1ccc(F)c(C(F)(F)F)c1 the result was Mtb glucose medium: 79.86%; Mtb cholesterol medium: 45.71%.
For CN(Cc1cc[nH]n1)CC(C)(C)CN1CCCC1 the result was Mtb glucose medium: 20.66%; Mtb cholesterol medium: -7.323%.
For Nc1nnc(-c2cccc(O)c2)[nH]1 the result was Mtb glucose medium: 8.457%; Mtb cholesterol medium: -0.4245%.
For CCN(Cc1ccoc1)C(=O)C1(C)CCCNC1 (centres undefined) the result was Mtb glucose medium: 3.335%; Mtb cholesterol medium: 5.576%.
For CCc1nccn1CCNC(=O)Cc1nonc1C the result was Mtb glucose medium: 2.176%; Mtb cholesterol medium: 11.79%.
For CC(=O)NCC1CCN(Cc2cc(C(C)C)no2)C1 (centres undefined) the result was Mtb glucose medium: 1.698%; Mtb cholesterol medium: 4.698%.
For CS(=O)(=O)c1ccc(OCCN)cc1 the result was Mtb glucose medium: 12.96%; Mtb cholesterol medium: 0.3313%.
For Cc1ccc(NS(=O)(=O)c2c(C)nn(C)c2Cl)nc1 the result was Mtb glucose medium: 13.99%; Mtb cholesterol medium: 5.583%.
For CC1=CC[C@@H]2CN(C(=O)Cn3nc(C)cc3N)C[C@@H]2C1 the result was Mtb glucose medium: 16.85%; Mtb cholesterol medium: 3.435%.
For CCNC1=C(C(N)=O)S(=O)(=O)c2ccccc21 the result was Mtb glucose medium: 6.867%; Mtb cholesterol medium: 3.082%.
For NS(=O)(=O)c1csc2ccccc12 the result was Mtb glucose medium: 31.23%; Mtb cholesterol medium: 15.4%.
For OCC(CO)NC1CCCSc2ccccc21 (centres undefined) the result was Mtb glucose medium: -6.428%; Mtb cholesterol medium: 0.8496%.
For Cc1ncsc1C(=O)NC(CCO)C(C)(C)C (centres undefined) the result was Mtb glucose medium: -0.333%; Mtb cholesterol medium: 0.03788%.
For CNC(=O)c1cccnc1N(C)CC(C)(C)O the result was Mtb glucose medium: 23.89%; Mtb cholesterol medium: 10.76%.
For COC(=O)CCCC(=O)N1CCC2(CCCC2)C1 the result was Mtb glucose medium: 53.13%; Mtb cholesterol medium: 43.61%.
For NCc1ccc(OCC(F)F)cc1 the result was Mtb glucose medium: 11.52%; Mtb cholesterol medium: 14.48%.
For NC(=O)c1ccon1 the result was Mtb glucose medium: 10.28%; Mtb cholesterol medium: 7.414%.
For CC(C)C(=O)NCc1ccc(-n2ccnc2)cc1 the result was Mtb glucose medium: 5.475%; Mtb cholesterol medium: -1.045%.
For c1cn(CC2CCNCC2)nn1 the result was Mtb glucose medium: 15.23%; Mtb cholesterol medium: 0.01149%.
For CCNC(=O)Cn1c(=O)n(CC)c2ccccc21 the result was Mtb glucose medium: 2.534%; Mtb cholesterol medium: 7.189%.
For CN(C)CCO[C@H]1CCOC[C@H]1NC(=O)c1cc[nH]c1 the result was Mtb glucose medium: 9.781%; Mtb cholesterol medium: -4.214%.
For Cc1cc(C)c(CNc2ncnc3[nH]ncc23)c(=O)[nH]1 the result was Mtb glucose medium: -2.183%; Mtb cholesterol medium: -10.91%.
For CCS(=O)(=O)NCCCNc1ccnc2ccsc12 the result was Mtb glucose medium: 14.94%; Mtb cholesterol medium: 12.72%.
For Cc1ccc(CN(CCO)C(=O)c2cscn2)cc1 the result was Mtb glucose medium: 12.55%; Mtb cholesterol medium: -30.3%.
For COc1ccc(CC(=O)N2CCNCC2)cc1 the result was Mtb glucose medium: 7.064%; Mtb cholesterol medium: -4.936%.
For CN(CCNC(=O)NC1CCOCC1)C1CCCC1 the result was Mtb glucose medium: -7.975%; Mtb cholesterol medium: -10.56%.
For COc1cccc(CNCc2ccc(C(N)=O)cc2)c1 the result was Mtb glucose medium: 11.69%; Mtb cholesterol medium: 3.314%.
For Cc1cc(C(=O)NCCc2noc(C3CC3)n2)[nH]n1 the result was Mtb glucose medium: 5.613%; Mtb cholesterol medium: 16.38%.
For CCC[C@H](N)C(N)=O the result was Mtb glucose medium: 20.41%; Mtb cholesterol medium: 21.38%.
For NS(=O)(=O)c1ccc(CNC(=O)NCC(F)(F)F)cc1 the result was Mtb glucose medium: 8.321%; Mtb cholesterol medium: -1.672%.
For CCN(CC(C)(C)O)C(=O)Cc1cccc(OC)c1 the result was Mtb glucose medium: 14.33%; Mtb cholesterol medium: -5.753%.
For O=C(NCCc1ccccc1F)C1CCNCC1 the result was Mtb glucose medium: 5.86%; Mtb cholesterol medium: 6.925%.
For CC(C)(C)OC(=O)N1CC(S(N)(=O)=O)C1 the result was Mtb glucose medium: -0.8413%; Mtb cholesterol medium: -8.323%.
For NCCOc1ccc2c(c1)OCO2 the result was Mtb glucose medium: 17.75%; Mtb cholesterol medium: 12.2%.
For Cc1ccc(C(=O)N2CCN(c3nccs3)CC2)o1 the result was Mtb glucose medium: 75.8%; Mtb cholesterol medium: 81.78%.
For CCN(C(=O)c1cc(F)ccc1OC)[C@H]1COC[C@@H]1O the result was Mtb glucose medium: 21.72%; Mtb cholesterol medium: 5.034%.
For CCN1CCN(CCCNC(=O)c2cnccn2)CC1 the result was Mtb glucose medium: -9.86%; Mtb cholesterol medium: -7.675%.
For CC(C)c1noc(OCCNS(C)(=O)=O)n1 the result was Mtb glucose medium: -17.84%; Mtb cholesterol medium: -16.23%.
For CCC(=O)N1CCCN(c2ccncc2Cl)CC1 the result was Mtb glucose medium: 20.39%; Mtb cholesterol medium: 21.71%.
For CCOC(=O)Nc1ccc2c(c1)OCCO2 the result was Mtb glucose medium: 59.15%; Mtb cholesterol medium: 71.86%.
For COc1ccc(C2CCCN2C(C)=O)cc1OC (centres undefined) the result was Mtb glucose medium: 8.376%; Mtb cholesterol medium: 25%.
For COCc1ccc(C(=O)N2CCOCC(O)C2)o1 (centres undefined) the result was Mtb glucose medium: 5.052%; Mtb cholesterol medium: 4.213%.
For CN(C(=O)OC(C)(C)C)C1(CO)CC1 the result was Mtb glucose medium: 4.3%; Mtb cholesterol medium: -1.67%.
For CC1=CCN(Cc2ccc(N(C)C)nc2)CC1 the result was Mtb glucose medium: -66.43%; Mtb cholesterol medium: -80.53%.

The first 3 entries again:

compound,Mtb glucose medium,Mtb cholesterol medium
CN1CCCN(C(=O)c2cc(C3CC3)on2)CC1,16.93%,12.9%
O=C1CCC(C(=O)Nc2ccc(F)c(Br)c2)N1 (centres undefined),48.1%,30.66%
NCCNS(=O)(=O)c1ccc(F)c(C(F)(F)F)c1,79.86%,45.71%